These are yes or no findings as the source states them, for the method shown. A result given as binding can be weak or reduced; the word gives no strength.

The target of this test is human PAR4 on isolated human platelets (human). Kind of test: flow cytometry on isolated human platelets. For orientation: A flow cytometer gives signals particle by particle.

B1: 5A.RC3 (antibody, IgG2a, V domains shown)
VH: QVQLVESGGGVVQPGRSLRLSCAASGFTLSNYGMHWVRQAPGKGLEWVSVIWYDGSNKHYADSVKGRFTISRDNSKNTLYLQMNSLRAEDTAVYYCARESIVEVLPPFDYWGQGTLVTVSS
VL: KIVLTQSPGTLSLSPGERVTLSCRASQRVRNNYLAWFQQKPGQAPRLFIYGASSRATGIPDRFSGSGSGTDFIFTISRLEPEDFAVYYCQQYGNSYTFGQGTKLEIK
For the molecule B1, the binding entry is “binds”.

Values taken from US20210179707A1.
